For this assay, the target named is T1, HA-tagged KCNE2 (human) (UniProt Q9Y6J6).
T1 sequence: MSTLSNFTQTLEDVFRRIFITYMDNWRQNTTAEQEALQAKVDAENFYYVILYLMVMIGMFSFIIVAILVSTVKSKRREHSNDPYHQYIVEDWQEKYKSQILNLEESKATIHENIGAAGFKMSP
In words: co-IP; lysate of CHO cells co-expressing HA-KCNE2 and DDK-Testin without any Kv alpha subunit; pre-cleared, antibody 1:100 overnight at 4°C, protein A/G PLUS agarose beads; western blot with anti-DDK and anti-HA.

These are yes or no findings as the source states them, for the method shown. In cells and extracts the contact can be indirect. Some results given as binding are weak or reduced against the parent protein; the word gives no strength. Tags and fused reporters may be left off the sequences shown.

B1: DDK-tagged Testin (protein, UniProt Q9UGI8 1-421)
chain: MDLENKVKKMGLGHEQGFGAPCLKCKEKCEGFELHFWRKICRNCKCGQEEHDVLLSNEEDRKVGKLFEDTKYTTLIAKLKSDGIPMYKRNVMILTNPVAAKKNVSINTVTYEWAPPVQNQALARQYMQMLPKEKQPVAGSEGAQYRKKQLAKQLPAHDQDPSKCHELSPREVKEMEQFVKKYKSEALGVGDVKLPCEMDAQGPKQMNIPGGDRSTPAAVGAMEDKSAEHKRTQYSCYCCKLSMKEGDPAIYAERAGYDKLWHPACFVCSTCHELLVDMIYFWKNEKLYCGRHYCDSEKPRCAGCDELIFSNEYTQAENQNWHLKHFCCFDCDSILAGEIYVMVNDKPVCKPCYVKNHAVVCQGCHNAIDPEVQRVTYNNFSWHASTECFLCSCCSKCLIGQKFMPVEGMVFCSVECKKRMS
On to B1, for which the binding entry is “binds”.
